Data from paper PMC10201443, “Site-directed biochemical analyses reveal that the switchable C-terminus of Rpc31 contributes to RNA polymerase III transcription initiation” (Nucleic Acids Research, 2022).
Results are given in words; binding and its absence hold for the method and conditions named. For some assays here: Binding seen in cells or lysates may run through a third protein. Some results given as binding are weak or reduced against the parent protein; the word gives no strength. Tags and fused reporters may be left off the sequences shown. One block for each binder: values may come before it.

Experiments:
[1] = biological target: T1, Full-length Rpc34 protein with an N-terminal V5 epitope tag, Alexa 647-labeled (S. cerevisiae) (UniProt P32910); experiment: MST; Alexa647-labeled Rpc34 constant at 5 nM, unlabeled Rpc31 peptides titrated (WT 1.16 μM to 0.000035 μM); 5 mM sodium phosphate pH 8.0, 0.05% Tween 20; 25°C; MST-on time 5 s; three independent measurements; both purified
T1 sequence (chain, Alexa Fluor 647 NHS Ester label (labeling efficiency ~0.8)): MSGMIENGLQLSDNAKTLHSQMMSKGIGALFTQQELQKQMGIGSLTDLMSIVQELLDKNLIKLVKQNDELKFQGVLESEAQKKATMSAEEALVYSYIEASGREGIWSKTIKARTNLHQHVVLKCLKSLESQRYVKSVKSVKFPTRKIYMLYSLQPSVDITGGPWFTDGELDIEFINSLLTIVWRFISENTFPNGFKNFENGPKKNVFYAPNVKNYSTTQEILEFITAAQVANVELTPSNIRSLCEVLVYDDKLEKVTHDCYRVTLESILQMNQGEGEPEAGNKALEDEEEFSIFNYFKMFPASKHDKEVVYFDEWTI

[2] = biological target: T2, Flag-epitope-tagged Rpc128 (S. cerevisiae) (UniProt P22276); experiment: co-IP; Flag-tagged Rpc128 from yeast whole cell extract (1.5 mg) held on anti-FLAG antibody agarose beads (M2); 4°C, 2 h; WCE buffer (20 mM HEPES pH 7.9, 100 mM KCl, 5 mM MgCl2, 1 mM EDTA, 20% glycerol); Western blot
T2 sequence: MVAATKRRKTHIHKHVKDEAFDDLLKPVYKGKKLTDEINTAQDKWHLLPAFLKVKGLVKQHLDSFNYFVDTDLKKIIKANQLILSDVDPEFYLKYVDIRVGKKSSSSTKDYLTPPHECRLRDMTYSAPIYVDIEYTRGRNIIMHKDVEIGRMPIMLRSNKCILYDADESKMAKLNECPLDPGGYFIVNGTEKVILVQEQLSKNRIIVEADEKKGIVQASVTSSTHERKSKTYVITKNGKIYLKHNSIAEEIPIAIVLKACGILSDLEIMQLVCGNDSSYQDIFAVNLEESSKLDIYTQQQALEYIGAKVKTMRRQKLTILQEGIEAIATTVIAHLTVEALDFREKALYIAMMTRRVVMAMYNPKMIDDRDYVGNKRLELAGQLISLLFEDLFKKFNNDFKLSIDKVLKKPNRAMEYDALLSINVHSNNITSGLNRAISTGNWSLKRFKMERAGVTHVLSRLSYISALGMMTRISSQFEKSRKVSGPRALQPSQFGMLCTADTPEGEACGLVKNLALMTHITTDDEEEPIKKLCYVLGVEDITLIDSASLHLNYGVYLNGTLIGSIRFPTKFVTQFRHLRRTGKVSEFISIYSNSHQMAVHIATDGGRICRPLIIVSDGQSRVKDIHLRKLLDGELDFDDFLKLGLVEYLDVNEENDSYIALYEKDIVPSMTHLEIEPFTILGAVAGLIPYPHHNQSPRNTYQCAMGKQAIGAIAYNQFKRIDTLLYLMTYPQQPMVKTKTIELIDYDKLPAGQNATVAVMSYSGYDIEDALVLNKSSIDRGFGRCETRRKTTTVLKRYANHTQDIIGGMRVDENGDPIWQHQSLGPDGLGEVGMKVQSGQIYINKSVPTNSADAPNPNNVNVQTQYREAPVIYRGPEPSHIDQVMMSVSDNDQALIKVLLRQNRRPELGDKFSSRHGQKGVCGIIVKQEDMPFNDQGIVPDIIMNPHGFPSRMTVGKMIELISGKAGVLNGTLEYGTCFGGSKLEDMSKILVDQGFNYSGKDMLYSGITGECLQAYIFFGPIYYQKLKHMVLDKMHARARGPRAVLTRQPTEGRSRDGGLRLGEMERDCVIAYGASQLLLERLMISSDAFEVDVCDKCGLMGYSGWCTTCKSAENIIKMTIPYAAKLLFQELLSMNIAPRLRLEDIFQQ

B1: Rpc31(aa 121–251)_Flag_ΔS151-G164 (domain or fragment, UniProt P17890)
chain: SIDDHPYNLNLFPNELYNVMGINKKKLLAILQDENIGLSMLAKLKELAEDVDDASTGDGAAKGSKTGEGEDDDLADDDFEEDEDEEDDDDYNAEKYFNNGDDDDYGDEEDPNEEAAF
- binding [1]: binds weakly

B2: Rpc34 (protein, UniProt P32910 1-317)
chain: T1 sequence (chain, Alexa Fluor 647 NHS Ester label (labeling efficiency ~0.8))
- binding [2]: binds

Further lines, results first:

- binding [2]: binds
B3: Rpc160 (protein, UniProt P04051 1-1460)
chain: MKEVVVSETPKRIKGLEFSALSAADIVAQSEVEVSTRDLFDLEKDRAPKANGALDPKMGVSSSSLECATCHGNLASCHGHFGHLKLALPVFHIGYFKATIQILQGICKNCSAILLSETDKRQFLHELRRPGVDNLRRMGILKKILDQCKKQRRCLHCGALNGVVKKAAAGAGSAALKIIHDTFRWVGKKSAPEKDIWVGEWKEVLAHNPELERYVKRCMDDLNPLKTLNLFKQIKSADCELLGIDATVPSGRPETYIWRYLPAPPVCIRPSVMMQDSPASNEDDLTVKLTEIVWTSSLIKAGLDKGISINNMMEHWDYLQLTVAMYINSDSVNPAMLPGSSNGGGKVKPIRGFCQRLKGKQGRFRGNLSGKRVDFSGRTVISPDPNLSIDEVAVPDRVAKVLTYPEKVTRYNRHKLQELIVNGPNVHPGANYLLKRNEDARRNLRYGDRMKLAKNLQIGDVVERHLEDGDVVLFNRQPSLHRLSILSHYAKIRPWRTFRLNECVCTPYNADFDGDEMNLHVPQTEEARAEAINLMGVKNNLLTPKSGEPIIAATQDFITGSYLISHKDSFYDRATLTQLLSMMSDGIEHFDIPPPAIMKPYYLWTGKQVFSLLIKPNHNSPVVINLDAKNKVFVPPKSKSLPNEMSQNDGFVIIRGSQILSGVMDKSVLGDGKKHSVFYTILRDYGPQEAANAMNRMAKLCARFLGNRGFSIGINDVTPADDLKQKKEELVEIAYHKCDELITLFNKGELETQPGCNEEQTLEAKIGGLLSKVREEVGDVCINELDNWNAPLIMATCGSKGSTLNVSQMVAVVGQQIISGNRVPDGFQDRSLPHFPKNSKTPQSKGFVRNSFFSGLSPPEFLFHAISGREGLVDTAVKTAETGYMSRRLMKSLEDLSCQYDNTVRTSANGIVQFTYGGDGLDPLEMEGNAQPVNFNRSWDHAYNITFNNQDKGLLPYAIMETANEILGPLEERLVRYDNSGCLVKREDLNKAEYVDQYDAERDFYHSLREYINGKATALANLRKSRGMLGLLEPPAKELQGIDPDETVPDNVKTSVSQLYRISEKSVRKFLEIALFKYRKARLEPGTAIGAIGAQSIGEPGTQMTLKTFHFAGVASMNVTLGVPRIKEIINASKVISTPIINAVLVNDNDERAARVVKGRVEKTLLSDVAFYVQDVYKDNLSFIQVRIDLGTIDKLQLELTIEDIAVAITRASKLKIQASDVNIIGKDRIAINVFPEGYKAKSISTSAKEPSENDVFYRMQQLRRALPDVVVKGLPDISRAVINIRDDGKRELLVEGYGLRDVMCTDGVIGSRTTTNHVLEVFSVLGIEAARYSIIREINYTMSNHGMSVDPRHIQLLGDVMTYKGEVLGITRFGLSKMRDSVLQLASFEKTTDHLFDAAFYMKKDAVEGVSECIILGQTMSIGTGSFKVVKGTNISEKDLVPKRCLFESLSNEAALKAN

- binding [2]: binds
B4: Rpc82 (protein, UniProt P32349 1-654)
chain: MDELLGEALSAENQTGESTVESEKLVTPEDVMTISSLEQRTLNPDLFLYKELVKAHLGERAASVIGMLVALGRLSVRELVEKIDGMDVDSVKTTLVSLTQLRCVKYLQETAISGKKTTYYYYNEEGIHILLYSGLIIDEIITQMRVNDEEEHKQLVAEIVQNVISLGSLTVEDYLSSVTSDSMKYTISSLFVQLCEMGYLIQISKLHYTPIEDLWQFLYEKHYKNIPRNSPLSDLKKRSQAKMNAKTDFAKIINKPNELSQILTVDPKTSLRIVKPTVSLTINLDRFMKGRRSKQLINLAKTRVGSVTAQVYKIALRLTEQKSPKIRDPLTQTGLLQDLEEAKSFQDEAELVEEKTPGLTFNAIDLARHLPAELDLRGSLLSRKPSDNKKRSGSNAAASLPSKKLKTEDGFVIPALPAAVSKSLQESGDTQEEDEEEEDLDADTEDPHSASLINSHLKILASSNFPFLNETKPGVYYVPYSKLMPVLKSSVYEYVIASTLGPSAMRLSRCIRDNKLVSEKIINSTALMKEKDIRSTLASLIRYNSVEIQEVPRTADRSASRAVFLFRCKETHSYNFMRQNLEWNMANLLFKKEKLKQENSTLLKKANRDDVKGRENELLLPSELNQLKMVNERELNVFARLSRLLSLWEVFQMA

- binding [2]: binds
B5: Rpc31 with a single V5-epitope tag at its C-terminus (wild type) (protein, UniProt P17890 1-251)
chain: MSSYRGGSRGGGSNYMSNLPFGLGYGDVGKNHITEFPSIPLPINGPITNKERSLAVKYINFGKTVKDGPFYTGSMSLIIDQQENSKSGKRKPNIILDEDDTNDGIERYSDKYLKKRKIGISIDDHPYNLNLFPNELYNVMGINKKKLLAISKFNNADDVFTGTGLQDENIGLSMLAKLKELAEDVDDASTGDGAAKGSKTGEGEDDDLADDDFEEDEDEEDDDDYNAEKYFNNGDDDDYGDEEDPNEEAAF
